Test results published in patent publication US5525591A (Bayer Aktiengesellschaft, priority 1993, dated 1996).
Some peptides are written in HELM: one residue between dots, names in brackets for other building blocks, links after the first $.

Assay: general procedure: solution-phase peptide synthesis; BOP-Cl, ethyldiisopropylamine

Substance	step yield (coupling step) [%]	step yield (late stage modification step) [%]
Bzl-L-MeLeu-D-Lac-L-MeLeu-D-PheLac-L-MeLeu-D-PheLac-D-OtBu	80	
Bzl-L-MeLeu-D-Lac-L-MeLeu-D-PheLac-OH		80
H-L-MeLeu-D-Lac-L-MeLeu-D-PheLac-OtBu		74
PEPTIDE1{[Bzl].[MeLeu].[D-Lac].[MeLeu].[D-PheLac].[MeLeu].[D-Lac].[MeLeu].[D-PheLac].[OtBu]}$$$$V2.0	79	
PEPTIDE1{[Bzl].[MePhe].[D-Lac].[MePhe].[D-PheLac].[MePhe].[D-Lac].[MePhe].[D-PheLac].[OtBu]}$$$$V2.0	89	
tert-Butyl-N-Benzyl-N-propyl-L-leucyl-D-lactyl-N-^i -propyl-L-leucyl-D-3-phenyllactyl-N-^i propyl-L-leucyl-D-lactyl-N-^i propyl-L-leucyl-D-3-phenyllactate	39	
